The target of assay [1] is ARP-T1, endogenous (human (endogenous in hTERT-RPE1)) (UniProt Q8TDG2). In words: proximity ligation.
Assay [2] deals with Actin-Related Protein-Testis1 (ARP-T1), wild type, tagged with Myc-DDK (human) (UniProt Q8TDG2). In words: co-IP.

Chains of the proteins cited; added tags and fusions are not shown. Lines headed by an entry give the natural chain unless they say otherwise; changes in a name come on top.
UniProt Q8TDG2: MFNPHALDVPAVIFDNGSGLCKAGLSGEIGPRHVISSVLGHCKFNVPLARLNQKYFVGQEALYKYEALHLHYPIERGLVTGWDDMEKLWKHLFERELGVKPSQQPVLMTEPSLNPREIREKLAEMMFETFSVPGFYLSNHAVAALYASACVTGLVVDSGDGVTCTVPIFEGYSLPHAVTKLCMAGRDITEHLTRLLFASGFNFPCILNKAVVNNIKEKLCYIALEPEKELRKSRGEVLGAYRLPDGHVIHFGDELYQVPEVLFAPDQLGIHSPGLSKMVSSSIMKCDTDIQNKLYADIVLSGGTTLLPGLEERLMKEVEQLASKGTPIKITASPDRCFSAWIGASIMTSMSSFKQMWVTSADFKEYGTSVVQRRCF
UniProt P23258: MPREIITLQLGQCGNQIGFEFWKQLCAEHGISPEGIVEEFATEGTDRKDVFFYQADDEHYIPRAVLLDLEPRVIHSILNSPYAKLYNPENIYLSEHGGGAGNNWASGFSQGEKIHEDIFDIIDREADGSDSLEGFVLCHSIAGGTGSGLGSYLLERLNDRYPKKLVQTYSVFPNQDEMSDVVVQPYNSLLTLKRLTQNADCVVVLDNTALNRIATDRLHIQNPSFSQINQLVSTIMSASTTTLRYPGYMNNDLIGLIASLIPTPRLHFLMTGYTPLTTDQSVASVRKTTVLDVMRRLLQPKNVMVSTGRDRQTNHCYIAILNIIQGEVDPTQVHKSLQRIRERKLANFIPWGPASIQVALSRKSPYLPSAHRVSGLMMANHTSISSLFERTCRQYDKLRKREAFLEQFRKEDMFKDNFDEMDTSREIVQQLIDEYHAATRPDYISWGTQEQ

Results are given in words; binding and its absence hold for the method and conditions named. Binding seen in cells or lysates may run through a third protein. Binding calls can cover weak binding; strength is not graded here.

As for γ-Tubulin (from UniProt P23258), the binding result in assay [1] and in assay [2] was “binds” throughout.
